Reference: the supplement of paper PMC12823440, “Inhibitors supercharge kinase turnover through native proteolytic circuits” (Nature, 2025)
Where a name gives a salt, the structure may show the parent alone. Some of the results follow. Hit calls seldom repeat between salt and free forms of one compound.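 Kinases, fused to nanoluciferase, were expressed in K562 cells; luminescence was measured every 4 h from 2 to 18 h as percent of control (DMSO = 100%, positive control = 0%). A time point is decreased if signal falls significantly (2 sigma). Hits were called by the authors by a rule that is not shown; the count of time points alone does not decide it.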

Protein sequences, listed by entry. Tags and fused reporters are not part of them. Lines headed by an entry give the natural chain unless they say otherwise; changes in a name come on top.
UniProt P31749: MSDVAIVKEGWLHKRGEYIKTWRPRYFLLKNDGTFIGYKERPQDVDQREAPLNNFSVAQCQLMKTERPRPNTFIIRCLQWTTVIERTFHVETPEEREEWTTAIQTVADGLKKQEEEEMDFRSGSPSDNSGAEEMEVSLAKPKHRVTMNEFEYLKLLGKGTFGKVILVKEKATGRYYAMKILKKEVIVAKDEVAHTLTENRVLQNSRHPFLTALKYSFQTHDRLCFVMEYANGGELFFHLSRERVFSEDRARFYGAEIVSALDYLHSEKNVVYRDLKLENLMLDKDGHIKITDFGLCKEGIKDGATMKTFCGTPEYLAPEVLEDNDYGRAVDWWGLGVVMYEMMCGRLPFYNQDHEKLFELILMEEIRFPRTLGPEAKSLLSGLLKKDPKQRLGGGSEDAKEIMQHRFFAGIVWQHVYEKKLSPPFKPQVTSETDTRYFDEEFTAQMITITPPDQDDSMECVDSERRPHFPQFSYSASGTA

Biological target: AKT1 (UniProt P31749)
Test: kinase-Nluc reporter destabilization hit call (1 = scored as downregulated) (binary); higher = compound decreases kinase abundance
Conditions: K562; 2-18 h

kinase-Nluc reporter destabilization hit call, inactive:
O=S(=O)(c1cccc2cnccc12)N1CCNCC1 (10 µM) 0
COc1cc(C(C)=O)cc(OC)c1O [Acetosyringone] (10 µM) 0
CCOc1c([C@H](C)n2nc(C)c3c(N)ncnc32)cc(Cl)c(F)c1[C@@H]1CNC(=O)C1 [Parsaclisib (hydrochloride)] (10 µM) 0
CC[C@H](C)[C@H](NC(=O)[C@H](CCC(=O)O)NC(=O)[C@H](CCCN=C(N)N)NC(=O)[C@H](CCCN=C(N)N)NC(=O)[C@@H](N)CCCCN)C(=O)N[C@@H](CC(C)C)C(=O)N[C@@H](CO)C(=O)N[C@@H](CCCN=C(N)N)C(=O)N[C@@H](CCCN=C(N)N)C(=O)N1CCC[C@H]1C(=O)N[C@@H](CO)C(=O)N[C@@H](Cc1ccc(O)cc1)C(=O)N[C@@H](CCCN=C(N)N)C(=O)O [CREBtide] (10 µM) 0
O=C(O)CCc1ccc(NCc2cccc(Oc3ccccc3)c2)cc1 (10 µM) 0
O[C@H]1CC[C@H](Nc2ncc3nc(Nc4c(F)cc(F)cc4F)n([C@H]4CCOC4)c3n2)CC1 [Tanzisertib] (10 µM) 0
Oc1ccccc1C(=S)N1CCCC1 (10 µM) 0
CC[C@@H]1C(=O)N(C)c2cnc(Nc3ccc(C(=O)N[C@H]4CC[C@H](N5CCN(CC6CC6)CC5)CC4)cc3OC)nc2N1C(C)C [Volasertib] (2.5 µM) 0
C[C@@H]1O[C@@H](OC[C@H]2O[C@@H](Oc3cc(O)c4c(c3)O[C@H](c3ccc(O)cc3)CC4=O)[C@H](O)[C@@H](O)[C@@H]2O)[C@H](O)[C@H](O)[C@H]1O [Narirutin] (10 µM) 0

2 records picked at random from the list so far, as already listed:
kinase-Nluc reporter destabilization hit call, inactive:
CCOc1c([C@H](C)n2nc(C)c3c(N)ncnc32)cc(Cl)c(F)c1[C@@H]1CNC(=O)C1 [Parsaclisib (hydrochloride)] (10 µM) 0
Oc1ccccc1C(=S)N1CCCC1 (10 µM) 0
